# Source: the supplement of paper PMC8728848
# The list shows a part of the results.
# B1: LlpB (Pseudomonas fluorescens) (protein)
# chain: MGSSHHHHHHSSGLVPRGSHMASSGFRIILFNSANNGTAILPPRNCLVAGQYLESPSKRYKLILEADGNLRLYDNGVPIWVADSSVPYTYVDNRPNTNLVTCFYMQGSAFLVDRVGSRTWATIGDWIDGAADRAYLQVQDDGNVVVVDGVPRWARFGFTPAALPNRGVFYPDHGTGPLPSFPVWSWTF
# Key:
# Assay in all cases: glycan array binding signal (z-score within array); higher = stronger binding
# Settings in all cases: glycan notation: IUPAC condensed, linker removed
# [1] = target: Fuc(a1-2)Gal6S(b1-3)GlcNAc6S
# Outline: (§1)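 Columns mapping to the same glycan were averaged after glycan names were converted to IUPAC-condensed notation. The data come from 3228 arrays in the Consortium for Functional Glycomics database, limited to those with an available protein sequence. Binding is reported as a within-array Z-score averaged across arrays of one protein sequence and across linkers.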
# Fuc(a1-2)Gal6S(b1-4)Glc = target: Fuc(a1-2)Gal6S(b1-4)Glc
# Outline: as §1
# [2] = target: Fuc(a1-2)Gal6S(b1-4)Glc6S
# Outline: as §1
# Fuc(a1-2)[Gal(a1-3)]Gal = target: Fuc(a1-2)[Gal(a1-3)]Gal
# Outline: as §1
# [3] = target: Fuc(a1-2)[Gal(a1-3)]Gal(b1-3)GalNAc
# Outline: as §1
# [4] = target: Fuc(a1-2)[Gal(a1-3)]Gal(b1-3)GalNAc(b1-3)Gal(a1-4)Gal(b1-4)Glc
# Outline: as §1
# [5] = target: Fuc(a1-2)[Gal(a1-3)]Gal(b1-3)GlcNAc
# Outline: as §1
# [6] = target: Fuc(a1-2)[Gal(a1-3)]Gal(b1-3)GlcNAc(b1-2)Man(a1-3)[Fuc(a1-2)[Gal(a1-3)]Gal(b1-3)GlcNAc(b1-2)Man(a1-6)]Man(b1-4)GlcNAc(b1-4)GlcNAc
# Outline: as §1
# [7] = target: Fuc(a1-2)[Gal(a1-3)]Gal(b1-3)GlcNAc(b1-2)Man(a1-3)[Fuc(a1-2)[Gal(a1-3)]Gal(b1-3)GlcNAc(b1-2)Man(a1-6)]Man(b1-4)GlcNAc(b1-4)[Fuc(a1-6)]GlcNAc
# Outline: as §1
# [8] = target: Fuc(a1-2)[Gal(a1-3)]Gal(b1-3)GlcNAc(b1-3)GalNAc
# Outline: as §1
# [9] = target: Fuc(a1-2)[Gal(a1-3)]Gal(b1-3)GlcNAc(b1-6)GalNAc
# Outline: as §1
# [10] = target: Fuc(a1-2)[Gal(a1-3)]Gal(b1-4)Glc
# Outline: as §1
# [11] = target: Fuc(a1-2)[Gal(a1-3)]Gal(b1-4)GlcNAc
# Outline: as §1
# [12] = target: Fuc(a1-2)[Gal(a1-3)]Gal(b1-4)GlcNAc(b1-2)Man
# Outline: as §1
# [13] = target: Fuc(a1-2)[Gal(a1-3)]Gal(b1-4)GlcNAc(b1-2)Man(a1-3)[Fuc(a1-2)[Gal(a1-3)]Gal(b1-4)GlcNAc(b1-2)Man(a1-6)]Man(b1-4)GlcNAc(b1-4)GlcNAc
# Outline: as §1
# [14] = target: Fuc(a1-2)[Gal(a1-3)]Gal(b1-4)GlcNAc(b1-2)Man(a1-3)[Fuc(a1-2)[Gal(a1-3)]Gal(b1-4)GlcNAc(b1-2)Man(a1-6)]Man(b1-4)GlcNAc(b1-4)[Fuc(a1-6)]GlcNAc
# Outline: as §1
# [15] = target: Fuc(a1-2)[Gal(a1-3)]Gal(b1-4)GlcNAc(b1-3)GalNAc
# Outline: as §1
# [16] = target: Fuc(a1-2)[Gal(a1-3)]Gal(b1-4)GlcNAc(b1-3)[Fuc(a1-2)[Gal(a1-3)]Gal(b1-4)GlcNAc(b1-6)]GalNAc
# Outline: as §1
# [17] = target: Fuc(a1-2)[Gal(a1-3)]Gal(b1-4)GlcNAc(b1-6)GalNAc
# Outline: as §1
# [18] = target: Fuc(a1-2)[Gal(a1-3)]Gal(b1-4)[Fuc(a1-3)]Glc
# Outline: as §1
# [19] = target: Fuc(a1-2)[Gal(a1-3)]Gal(b1-4)[Fuc(a1-3)]GlcNAc
# Outline: as §1
# [20] = target: Fuc(a1-2)[Gal(a1-3)]Gal(b1-4)[Fuc(a1-3)]GlcNAc(b1-3)GalNAc
# Outline: as §1
# [21] = target: Fuc(a1-2)[Gal(a1-4)]Gal(b1-4)GlcNAc
# Outline: as §1
# [22] = target: Fuc(a1-2)[GalNAc(a1-3)]Gal
# Outline: as §1
# [23] = target: Fuc(a1-2)[GalNAc(a1-3)]Gal(b1-3)GalNAc(a1-3)[Fuc(a1-2)]Gal(b1-4)GlcNAc
# Outline: as §1
# [24] = target: Fuc(a1-2)[GalNAc(a1-3)]Gal(b1-3)GalNAc(b1-3)Gal(a1-4)Gal(b1-4)Glc
# Outline: as §1
# [25] = target: Fuc(a1-2)[GalNAc(a1-3)]Gal(b1-3)GlcNAc
# Outline: as §1
# [26] = target: Fuc(a1-2)[GalNAc(a1-3)]Gal(b1-3)GlcNAc(b1-2)Man(a1-3)[Fuc(a1-2)[GalNAc(a1-3)]Gal(b1-3)GlcNAc(b1-2)Man(a1-6)]Man(b1-4)GlcNAc(b1-4)GlcNAc
# Outline: as §1
# [27] = target: Fuc(a1-2)[GalNAc(a1-3)]Gal(b1-3)GlcNAc(b1-2)Man(a1-3)[Fuc(a1-2)[GalNAc(a1-3)]Gal(b1-3)GlcNAc(b1-2)Man(a1-6)]Man(b1-4)GlcNAc(b1-4)[Fuc(a1-6)]GlcNAc
# Outline: as §1
# [28] = target: Fuc(a1-2)[GalNAc(a1-3)]Gal(b1-3)GlcNAc(b1-3)GalNAc
# Outline: as §1
# [29] = target: Fuc(a1-2)[GalNAc(a1-3)]Gal(b1-3)GlcNAc(b1-6)GalNAc
# Outline: as §1
# [30] = target: Fuc(a1-2)[GalNAc(a1-3)]Gal(b1-4)Glc
# Outline: as §1
# [31] = target: Fuc(a1-2)[GalNAc(a1-3)]Gal(b1-4)GlcNAc
# Outline: as §1
# [32] = target: Fuc(a1-2)[GalNAc(a1-3)]Gal(b1-4)GlcNAc(b1-2)Man
# Outline: as §1
# [33] = target: Fuc(a1-2)[GalNAc(a1-3)]Gal(b1-4)GlcNAc(b1-2)Man(a1-3)[Fuc(a1-2)[GalNAc(a1-3)]Gal(b1-4)GlcNAc(b1-2)Man(a1-6)]Man(b1-4)GlcNAc(b1-4)GlcNAc
# Outline: as §1
# [34] = target: Fuc(a1-2)[GalNAc(a1-3)]Gal(b1-4)GlcNAc(b1-2)Man(a1-3)[Fuc(a1-2)[GalNAc(a1-3)]Gal(b1-4)GlcNAc(b1-2)Man(a1-6)]Man(b1-4)GlcNAc(b1-4)[Fuc(a1-6)]GlcNAc
# Outline: as §1
# [35] = target: Fuc(a1-2)[GalNAc(a1-3)]Gal(b1-4)GlcNAc(b1-3)Gal(b1-4)GlcNAc
# Outline: as §1
# [36] = target: Fuc(a1-2)[GalNAc(a1-3)]Gal(b1-4)GlcNAc(b1-3)Gal(b1-4)GlcNAc(b1-3)Gal(b1-4)GlcNAc
# Outline: as §1
# [37] = target: Fuc(a1-2)[GalNAc(a1-3)]Gal(b1-4)GlcNAc(b1-3)GalNAc
# Outline: as §1
# [38] = target: Fuc(a1-2)[GalNAc(a1-3)]Gal(b1-4)GlcNAc(b1-3)[Fuc(a1-2)[GalNAc(a1-3)]Gal(b1-4)GlcNAc(b1-6)]GalNAc
# Outline: as §1
# [39] = target: Fuc(a1-2)[GalNAc(a1-3)]Gal(b1-4)GlcNAc(b1-6)GalNAc
# Outline: as §1
# [40] = target: Fuc(a1-2)[GalNAc(a1-3)]Gal(b1-4)[Fuc(a1-3)]GlcNAc
# Outline: as §1
# [41] = target: Fuc(a1-2)[GalNAc(a1-3)]Gal(b1-4)[Fuc(a1-3)]GlcNAc(b1-3)GalNAc
# Outline: as §1
# [42] = target: Fuc(a1-2)[GalNAc(a1-4)]Gal(b1-4)GlcNAc
# Outline: as §1
# [43] = target: Fuc(a1-2)[GalNAc(b1-3)]Gal
# Outline: as §1
binder,measurement,setting,value
B1,glycan array binding signal (z-score),[1],-0.179
same,glycan array binding signal (z-score),Fuc(a1-2)Gal6S(b1-4)Glc,-1.77
same,glycan array binding signal (z-score),[2],0.007
same,glycan array binding signal (z-score),Fuc(a1-2)[Gal(a1-3)]Gal,0.062
same,glycan array binding signal (z-score),[3],1.28
same,glycan array binding signal (z-score),[4],-0.974
same,glycan array binding signal (z-score),[5],-0.51
same,glycan array binding signal (z-score),[6],0.022
same,glycan array binding signal (z-score),[7],-0.218
same,glycan array binding signal (z-score),[8],-1.03
same,glycan array binding signal (z-score),[9],-0.511
same,glycan array binding signal (z-score),[10],-1.17
same,glycan array binding signal (z-score),[11],0.037
same,glycan array binding signal (z-score),[12],0.961
same,glycan array binding signal (z-score),[13],0.397
same,glycan array binding signal (z-score),[14],-0.643
same,glycan array binding signal (z-score),[15],-1.23
same,glycan array binding signal (z-score),[16],0.507
same,glycan array binding signal (z-score),[17],0.491
same,glycan array binding signal (z-score),[18],-1.18
same,glycan array binding signal (z-score),[19],0.244
same,glycan array binding signal (z-score),[20],-0.915
same,glycan array binding signal (z-score),[21],1.47
same,glycan array binding signal (z-score),[22],0.524
same,glycan array binding signal (z-score),[23],-0.416
same,glycan array binding signal (z-score),[24],-0.872
same,glycan array binding signal (z-score),[25],-0.102
same,glycan array binding signal (z-score),[26],1.25
same,glycan array binding signal (z-score),[27],-0.697
same,glycan array binding signal (z-score),[28],-0.108
same,glycan array binding signal (z-score),[29],-0.658
same,glycan array binding signal (z-score),[30],-0.54
same,glycan array binding signal (z-score),[31],0.119
same,glycan array binding signal (z-score),[32],-0.974
same,glycan array binding signal (z-score),[33],-0.94
same,glycan array binding signal (z-score),[34],-0.872
same,glycan array binding signal (z-score),[35],-0.594
same,glycan array binding signal (z-score),[36],0.192
same,glycan array binding signal (z-score),[37],-1.58
same,glycan array binding signal (z-score),[38],-1.02
same,glycan array binding signal (z-score),[39],-0.874
same,glycan array binding signal (z-score),[40],0.73
same,glycan array binding signal (z-score),[41],0.076
same,glycan array binding signal (z-score),[42],-0.099
same,glycan array binding signal (z-score),[43],1.75

# 11 consecutive entries out of the list so far, for reference:
binder,measurement,setting,value
B1,glycan array binding signal (z-score),[32],-0.974
same,glycan array binding signal (z-score),[33],-0.94
same,glycan array binding signal (z-score),[34],-0.872
same,glycan array binding signal (z-score),[35],-0.594
same,glycan array binding signal (z-score),[36],0.192
same,glycan array binding signal (z-score),[37],-1.58
same,glycan array binding signal (z-score),[38],-1.02
same,glycan array binding signal (z-score),[39],-0.874
same,glycan array binding signal (z-score),[40],0.73
same,glycan array binding signal (z-score),[41],0.076
same,glycan array binding signal (z-score),[42],-0.099
